Assay results reported in doi:10.1101/383430 (bioRxiv, 2018).
No constants are given. Whether binding was seen depends on the method and setting. In cells and extracts the contact can be indirect. Some entries that bind do so weakly or less than the wild type. Where a sequence is shown, tags or fusion partners need not be part of it.

Biological target: T1, FAP45 (flagellar-associated protein 45) (Chlamydomonas (endogenous in axonemes)) (UniProt A8I9E8)
T1 sequence: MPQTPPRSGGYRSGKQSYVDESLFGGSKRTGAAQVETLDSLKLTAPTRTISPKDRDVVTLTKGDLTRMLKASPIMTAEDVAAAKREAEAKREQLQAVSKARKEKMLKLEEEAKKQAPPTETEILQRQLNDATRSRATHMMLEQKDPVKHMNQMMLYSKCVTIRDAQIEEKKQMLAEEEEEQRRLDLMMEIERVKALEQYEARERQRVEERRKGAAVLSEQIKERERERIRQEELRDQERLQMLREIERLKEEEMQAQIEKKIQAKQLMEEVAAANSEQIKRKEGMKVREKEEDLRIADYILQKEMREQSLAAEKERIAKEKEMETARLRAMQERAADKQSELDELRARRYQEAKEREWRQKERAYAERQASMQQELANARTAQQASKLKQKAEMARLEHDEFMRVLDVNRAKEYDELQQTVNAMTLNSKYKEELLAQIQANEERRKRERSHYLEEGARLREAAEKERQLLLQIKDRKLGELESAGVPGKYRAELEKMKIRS
Experiment: cross-linking

B1: FAP52 (flagellar-associated protein 52) (natural protein, Chlamydomonas (endogenous in axonemes), UniProt A8ILK1 1-615, looked up)
chain: MAEPLVLNSVIGFGGAIENGLIAHPDGRTIIYPLGSTIVLRDRADPRSQEFLQGHSDKVSCLALSRSGRYLASGQITYMGFTADIIIWDLESKQLIHRMALHKVKVQALDFSCDERFLASLGGQDDNALVLWDVASGNAICGSPCNTNFTNCVKFFNNSPDKLITAGNFNMNVWTYDAGNNKLRPTDATLGTLKRVFKSVVVDANDEYAYCGTTTGDVLQIALERVLFKNTGPAKGNVQMGVTATCEVPTGDILVGGGDGSLQLLRKMPALAGTKVEGAITSIALADMNARGFTFFVGTAMCNIYKPATSRLKEELVQTAHNDKINGMAFPNEYSEVFATCGTGFIRLWHLTTCRELLRIAVPNLECFCIAFTTDGSAILSGWSDGKIRAFGPQSGKIIFTINDAHQKAVTAIASTADSSRILSGGEEGMVRVWRIGRTSQTLEASMKDHKGPVNCIRIKGSGDECVSASSDGSCILWDLHTFKRRTSLFANTFFKSVVYHPDESQLVTAGTDRKVTYWDAYDGNAIRIIDGSDLDEVNALAVDRDGEALVSGGGDKLVKLWGYDEGHCYFVGVAHSGAITAVGVTPDKQRIVSVGTEGGIFIWDYQRPQTLADI
binding: binds
